Test results as given in publication PMC7372013.
These are yes or no findings as the source states them, for the method shown. Binding seen in cells or lysates may run through a third protein. Some results given as binding are weak or reduced against the parent protein; the word gives no strength.

Chains of the proteins cited; added tags and fusions are not shown. Residues count along the entry.
UniProt Q07021, residues 74-282: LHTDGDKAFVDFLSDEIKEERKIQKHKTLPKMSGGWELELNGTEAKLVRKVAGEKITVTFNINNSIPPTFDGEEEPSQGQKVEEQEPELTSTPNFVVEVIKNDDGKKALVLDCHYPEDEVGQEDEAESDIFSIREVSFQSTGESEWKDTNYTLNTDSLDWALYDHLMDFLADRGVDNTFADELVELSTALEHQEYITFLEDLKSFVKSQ
UniProt O00425: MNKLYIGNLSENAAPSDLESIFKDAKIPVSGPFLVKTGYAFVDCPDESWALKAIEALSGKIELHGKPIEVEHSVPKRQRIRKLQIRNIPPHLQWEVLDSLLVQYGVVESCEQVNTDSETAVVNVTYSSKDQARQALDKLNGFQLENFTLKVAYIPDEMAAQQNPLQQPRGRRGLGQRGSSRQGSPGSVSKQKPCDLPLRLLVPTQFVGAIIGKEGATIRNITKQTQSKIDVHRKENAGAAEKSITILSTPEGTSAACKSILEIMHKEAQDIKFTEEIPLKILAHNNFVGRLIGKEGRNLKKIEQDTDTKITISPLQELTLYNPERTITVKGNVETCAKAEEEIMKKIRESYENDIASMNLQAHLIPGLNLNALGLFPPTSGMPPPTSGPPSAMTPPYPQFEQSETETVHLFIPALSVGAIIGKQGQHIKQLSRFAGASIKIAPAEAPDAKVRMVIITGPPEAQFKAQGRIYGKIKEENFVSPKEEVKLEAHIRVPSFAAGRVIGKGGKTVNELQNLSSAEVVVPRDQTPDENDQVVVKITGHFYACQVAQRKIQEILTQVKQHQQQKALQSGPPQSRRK

Target: Globular C1q receptor (human (endogenous in H929, U266, MM1S)) (UniProt Q07021)
Assay: co-IP; anti-gC1qR immunoprecipitation from H929 and U266 lysates, Western blot for IGF2BP3; cells treated with C1q or BSA

- binding: binds
Substance: insulin-like growth factor 2 mRNA binding protein 3 (from UniProt O00425 1-579)
